According to PubChem BioAssay AID2685 (National Center for Advancing Translational Sciences (NCATS), 2010):
Some of the results follow. Further columns of the screen follow, without active or inactive calls. The list favours compounds with an active or inconclusive main result. The note in brackets gives the kind of curve behind each potency; many fits are weak.

Assay: qHTS Assay for Lipid Storage Modulators in Drosophila S3 Cells;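 on cell number change: cells counted by Cell Tracker Red CMTPX staining in the red channel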
Details: BODIPY lipid droplet fluorescence, 18-24 h; for cell number change: measured here: cell count max response, cells fed with added oleic acid
Summary of the method: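 Drosophila S3 cells loaded with oleic acid (400 uM, as added) and compounds at several concentrations; lipid droplets imaged by 488-nm laser-scanning cytometry, 500–530 nm intensity and object ratio to cell channel. Percent activity normalized to 20 uM Triacsin C.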

[1] = measured here: lipid fluorescence (Fed channel) AC50, cells fed with added oleic acid
[2] = measured here: cell number channel AC50, cells fed with added oleic acid

Structure (SMILES)	cell number change [%]	AC50 [1]	AC50 [2]
CS(=O)(=O)N1CCc2cc(C(=O)O)ccc21	-1.6	146 nM [rising, full curve, poor fit]	
O=C(c1cccs1)c1cn(CC(=O)N2CCc3ccccc3C2)c2ccccc12	-20.2		
CCOC(=O)C1CCN(C(=O)c2cc3cc(Br)ccc3oc2=O)CC1		184 nM [falling, full curve]	291 nM [falling, full curve, poor fit]
COc1ccc(CNC(=O)c2csc(Cc3ccc(OC)cc3)n2)cc1	17.5	29100 nM [rising, single point]	
COCCn1c(=S)[nH]c2cc(OC)c(OC)cc2c1=O	8.36	73.1 nM [rising, single point]	
Fc1ccc(Cn2c(-c3cscn3)nc3ccccc32)c(Cl)c1		1640 nM [rising, partial curve]	1840 nM [rising, partial curve]
CCOC(=O)c1c(NC(=O)CC)sc2c1CCN(Cc1ccccc1)C2	-23.6	7310 nM [falling, partial curve, poor fit]	
O=C(O)c1cc(S(=O)(=O)Nc2ccc3c(c2)OCCO3)c(Cl)cc1Cl	-35	23100 nM [falling, partial curve, poor fit]	517 nM [falling, full curve]
CC(C)CC(=O)Nc1nnn(C)n1	6.27		
C/C(=N\NS(=O)(=O)c1ccc([N+](=O)[O-])cc1)c1ccc2c(c1)OCO2	27.2		
Cc1cccc(N(CC(=O)N2CCOCC2)S(C)(=O)=O)c1	14.7	18400 nM [rising, single point]	
Cc1ccc(NC(=O)c2ccco2)cc1C	23.8	731 nM [rising, full curve]	517 nM [rising, full curve]
CCN(CC)C(=O)c1ccc(N)cc1	3.91		
CSc1ccc(CN(C)C(=O)c2cccc(S(=O)(=O)N3CCN(Cc4ccccc4)CC3)c2)cc1	16.4	18400 nM [rising, single point]	3260 nM [rising, single point]
Cc1ccc(S(=O)(=O)N2CCN(c3ccnc4cc(Cl)ccc34)CC2)cc1	-36.7	29100 nM [falling, single point]	32600 nM [falling, single point]
CCOc1ccc(C(=O)NCC(=O)Nc2ccc(N3CCOCC3)cc2)cc1OCC	92.2		
COc1ccc(C(=O)Oc2cc(C(=S)N3CCOCC3)ccc2OC)cc1	-11.4	29100 nM [rising, single point]	

2 consecutive entries from above, for reference:
Structure (SMILES)	cell number change [%]	AC50 [1]	AC50 [2]
CCOC(=O)C1CCN(C(=O)c2cc3cc(Br)ccc3oc2=O)CC1		184 nM [falling, full curve]	291 nM [falling, full curve, poor fit]
COc1ccc(CNC(=O)c2csc(Cc3ccc(OC)cc3)n2)cc1	17.5	29100 nM [rising, single point]	
